Assay results from article PMC5105669.
No constants are given. Whether binding was seen depends on the method and setting. Binding seen in cells or lysates may run through a third protein. Some results given as binding are weak or reduced against the parent protein; the word gives no strength.

Chains of the proteins cited; added tags and fusions are not shown. Residues count along the entry.
UniProt P68331, residues 31-338: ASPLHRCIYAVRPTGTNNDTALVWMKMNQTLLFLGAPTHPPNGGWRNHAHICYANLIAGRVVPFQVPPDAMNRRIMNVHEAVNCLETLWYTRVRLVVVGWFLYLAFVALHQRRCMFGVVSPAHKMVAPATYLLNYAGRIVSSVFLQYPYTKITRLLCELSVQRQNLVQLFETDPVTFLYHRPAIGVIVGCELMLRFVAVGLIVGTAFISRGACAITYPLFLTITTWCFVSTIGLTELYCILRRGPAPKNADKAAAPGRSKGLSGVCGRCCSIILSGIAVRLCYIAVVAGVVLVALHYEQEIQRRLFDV
UniProt P10221: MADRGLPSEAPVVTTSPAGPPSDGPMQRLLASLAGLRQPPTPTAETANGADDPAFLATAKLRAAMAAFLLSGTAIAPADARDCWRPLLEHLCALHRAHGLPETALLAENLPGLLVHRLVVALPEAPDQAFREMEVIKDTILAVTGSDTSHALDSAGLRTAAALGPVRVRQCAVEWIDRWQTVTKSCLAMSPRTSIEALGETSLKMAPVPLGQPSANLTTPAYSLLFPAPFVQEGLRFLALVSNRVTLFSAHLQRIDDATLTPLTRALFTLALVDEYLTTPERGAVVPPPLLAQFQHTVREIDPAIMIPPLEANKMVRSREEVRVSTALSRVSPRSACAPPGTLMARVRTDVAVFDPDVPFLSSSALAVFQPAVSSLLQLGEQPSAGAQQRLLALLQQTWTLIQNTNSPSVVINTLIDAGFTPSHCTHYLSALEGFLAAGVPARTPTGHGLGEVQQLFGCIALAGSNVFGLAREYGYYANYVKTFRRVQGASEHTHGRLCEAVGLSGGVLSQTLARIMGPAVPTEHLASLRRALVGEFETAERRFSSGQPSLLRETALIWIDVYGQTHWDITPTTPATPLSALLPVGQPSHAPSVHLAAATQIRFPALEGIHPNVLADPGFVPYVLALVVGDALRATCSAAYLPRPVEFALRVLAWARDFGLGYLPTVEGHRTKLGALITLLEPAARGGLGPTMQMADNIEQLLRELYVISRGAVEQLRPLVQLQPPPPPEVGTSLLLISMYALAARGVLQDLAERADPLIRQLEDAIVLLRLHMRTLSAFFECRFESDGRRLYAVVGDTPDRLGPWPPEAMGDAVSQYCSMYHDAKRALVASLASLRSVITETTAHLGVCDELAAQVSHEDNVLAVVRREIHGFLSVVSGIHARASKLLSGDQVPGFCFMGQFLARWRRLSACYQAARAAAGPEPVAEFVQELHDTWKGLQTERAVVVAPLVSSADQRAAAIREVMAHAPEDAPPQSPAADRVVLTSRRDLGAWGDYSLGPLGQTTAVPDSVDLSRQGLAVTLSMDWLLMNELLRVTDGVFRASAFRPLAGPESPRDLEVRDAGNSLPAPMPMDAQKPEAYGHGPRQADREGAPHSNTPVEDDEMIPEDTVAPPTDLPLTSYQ
UniProt P10204: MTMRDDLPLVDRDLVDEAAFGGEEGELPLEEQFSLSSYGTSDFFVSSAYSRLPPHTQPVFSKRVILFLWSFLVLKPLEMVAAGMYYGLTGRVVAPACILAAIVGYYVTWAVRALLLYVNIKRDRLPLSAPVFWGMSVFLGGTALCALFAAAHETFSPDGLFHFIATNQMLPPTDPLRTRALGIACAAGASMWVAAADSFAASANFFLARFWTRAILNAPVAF

Molecular target: HSV-1 glycoprotein K tagged with a V5 epitope (herpes simplex virus 1 (strain F)) (UniProt P68331)
Test: co-IP; anti-V5 (gK) antibody on protein G magnetic Dynabeads; NP-40 lysates of Vero cells infected with VC1, DC474-480 or HSV-1(F) at MOI 2, 24 hpi; 10 min at room temperature, washed three times with PBS; immunoblot with anti-V5, anti-FLAG, anti-UL37 and anti-VP5

Substance	binding
HSV-1 UL37 protein (wild type, from VC1 virus) (from UniProt P10221 1-1123)	binds
HSV-1 UL20 protein tagged with a 3×FLAG epitope (from UniProt P10204 1-222)	binds
